# Assay results taken from the supplement of paper PMC9135407.
# Where “and” joins values, the source holds several entries; their conditions need not be identical. Identical values can stand only once. Counter-ions that a name gives are not always drawn. ± gives the standard deviation of the averaged measurements. The list shows a part of the results. Baselines shift from plate to plate; read single values as rough.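 Primary human stellate myofibroblasts activated in culture; inactivation shown by regained lipid droplets. Readout: fraction of Hoechst-counted cells exceeding a per-plate Bodipy threshold, duplicate wells, each plate with DMSO negative and nortriptyline positive controls. Hits: control-normalized score beyond the plate's top-tenth-percentile nortriptyline wells, or among its three best wells. Final well concentrations unstated.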
# Test system: primary human hepatic stellate cells (donor 1)
# Assay: percent Bodipy-positive cells; higher = more lipid droplet accumulation
# Conditions: 48 h
# Experimental: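 Primary lipid accumulation screen in primary human hepatic stellate cell myofibroblasts (donor 1, passage 8) in 384-well plates. 100 nL of library compound was pin-transferred into 30 µL medium in duplicate, and cells were treated for 48 h. The 'Scaled' score combines distance from plate baseline, toxicity and reproducibility penalties, and is normalised to nortriptyline (positive) and DMSO (negative) controls on each plate. A hit is defined as scaled >0.85 or among the top 3 wells per plate.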
# [1] = library stock concentration: 10 mM
# [2] = library stock concentration: 3.33 mM
# [3] = library stock concentration: 1 mM
smiles,measurement,setting,value
CN1CCC[C@@H]1Cc1c[nH]c2ccc(CCS(=O)(=O)c3ccccc3)cc12 [Eletriptan hydrobromide],percent Bodipy-positive cells,[1],40 ± 4.2%
CN1CCC[C@@H]1Cc1c[nH]c2ccc(CCS(=O)(=O)c3ccccc3)cc12 [Eletriptan HBr],percent Bodipy-positive cells,[2],45.9 ± 3.2%
same,percent Bodipy-positive cells,[1],44.7 ± 11%
CCCCC[C@@](C)(O)/C=C/[C@H]1C=CC(=O)[C@@H]1C/C=C\CCCC(=O)O [15(R)-15-methyl Prostaglandin A2],percent Bodipy-positive cells,[3],12 ± 6.5%
O=C(O)Cc1c[nH]c2ccc(O)cc12 [5-Hydroxyindolacetic acid],percent Bodipy-positive cells,[1],36.6 ± 5.5%
"CCCCC[C@H](O)CC[C@@H]1[C@@H](C/C=C\CCCC(=O)O)[C@@H](O)C[C@H]1O [13,14-dihydro Prostaglandin F2.alpha.]",percent Bodipy-positive cells,[3],13.2 ± 4.4%
N=C(N)SCCC[C@H](N)C(=O)O [Thioarginine (hydrobromide)],percent Bodipy-positive cells,[3],8.69 ± 1.2%
Cc1cccc(C)c1OCC(C)N (stereo unspecified) [Mexiletine HCl],percent Bodipy-positive cells,[2],14.2 ± 0.28%
same,percent Bodipy-positive cells,[1],51 ± 0.88%
Cc1cccc(C)c1OCC(C)N (stereo unspecified) [Mexiletine hydrochloride],percent Bodipy-positive cells,,56.7 ± 4.2%
same,percent Bodipy-positive cells,library stock concentration: 9.3 mM,28.3 ± 5.6%
same,percent Bodipy-positive cells,[1],26 ± 6.3%
Cc1cccc(C)c1OCC(C)N (stereo unspecified) [Mexiletene hydrochloride],percent Bodipy-positive cells,[1],80.1 ± 5.4%
CN1[C@@H]2CC[C@H]1C[C@@H](OC(=O)c1c[nH]c3ccccc13)C2 [Tropisetron hydrochloride],percent Bodipy-positive cells,[1],24.8 ± 12%
CN1[C@@H]2CC[C@H]1C[C@@H](OC(=O)c1c[nH]c3ccccc13)C2 [Tropisetron HCl],percent Bodipy-positive cells,,67 ± 8.4%
same,percent Bodipy-positive cells,library stock concentration: 7 mM,30.1 ± 1.8%
CN1[C@@H]2CC[C@H]1C[C@@H](OC(=O)c1c[nH]c3ccccc13)C2 [Tropisetron],percent Bodipy-positive cells,[2],54.3 ± 5%
same,percent Bodipy-positive cells,[1],44.8 ± 0.67%
C=CC(=O)Nc1cc(-n2c(=O)ccc3cnc4ccc(-c5ccc(NS(C)(=O)=O)cc5)cc4c32)ccc1C,percent Bodipy-positive cells,library stock concentration: 80 uM,8.84 ± 1.9%
same,percent Bodipy-positive cells,library stock concentration: 400 uM,11.3 ± 3%
same,percent Bodipy-positive cells,library stock concentration: 2 mM,6.91 ± 2.6%
same,percent Bodipy-positive cells,[1],31.7 ± 18%
C(=C/CCNC)(/c1c2cccc1)\c3c(cccc3)CC2.Cl [Nortriptyline hydrochloride],percent Bodipy-positive cells,[1],100%
CCCCC[C@H](O)/C=C/[C@H]1C(=O)C[C@H](O)[C@@H]1C/C=C\CCCC(=O)NC(CO)CO [Prostaglandin D2 serinol amide],percent Bodipy-positive cells,[3],9.98 ± 0.56%
Cc1ccc(F)c(NC(=O)Nc2ccc(-c3cccc4[nH]nc(N)c34)cc2)c1,percent Bodipy-positive cells,[1],67.8 ± 1.3%
Cc1cc(=O)[nH]c(=S)[nH]1 [Methylthiouracil],percent Bodipy-positive cells,[2],11.6 ± 6.2%
same,percent Bodipy-positive cells,[1],28.3% and 44%
O=c1cc(N2CCNCC2)oc2c(-c3ccccc3)cccc12,percent Bodipy-positive cells,[1],78.292 ± 0.024%
CCOc1ccc(Nc2nc(-c3c(C)nc4ccccn34)cs2)cc1,percent Bodipy-positive cells,[1],39.6 ± 4.5%
CN1CCC(=C2c3ccccc3CCc3sccc32)CC1.O=C(O)/C=C\C(=O)O [Pizotyline],percent Bodipy-positive cells,[1],80.4 ± 6.2%
Cc1cc(I)ccc1Nc1c(C(=O)NOCC2CC2)cc(F)c(F)c1F,percent Bodipy-positive cells,[1],23.3 ± 14%
CC(=O)[C@H]1CC[C@H]2[C@@H]3C=CC4=CC(=O)CC[C@@]4(C)[C@@H]3CC[C@]12C [Dydrogesterone],percent Bodipy-positive cells,,10.6 ± 1.4%
same,percent Bodipy-positive cells,[2],17.6 ± 3.1%
same,percent Bodipy-positive cells,[1],43.7 ± 14%
Nc1nc(CC(=O)Nc2ccc(CCNC[C@H](O)c3ccccc3)cc2)cs1 [Mirabegron],percent Bodipy-positive cells,[2],15.3 ± 8.9%
same,percent Bodipy-positive cells,[1],54.6 ± 5%
